The target of the experiment is RNA-binding Fox protein 1, GFP protein trap (Rbfox1^CC00511) (Drosophila (endogenous in fly thoraces)). In words: affinity purification with mass spectrometry; about 500 mg thoraces of Rbfox1^CC00511 flies lysed in RIPA buffer with protease inhibitors, pre-cleared with Protein-G Dynabeads, immunoprecipitated with mouse anti-GFP (12A6) or IgG isotype control; beads washed in RIPA; unique SDS-PAGE bands cut and analysed by MALDI-TOF.

This passage reports binding results from paper PMC8742874.

No constants are given. Whether binding was seen depends on the method and setting. In cells and extracts the contact can be indirect. A yes stands for co-enrichment or nearness to the bait. Other partners may have been found.

B1: nonsense-mediated decay regulator Rent1 (protein, UniProt Q9VYS3 1-1180)
chain: MSVDTYAPSSALSFLDMDDNELLPGADTQPTQYDYRDFTMPSTSQSQTQNDQLEIAQRCSAGDSHPRLASITNDLADLQFEEEDDEPGSSYVKELPPHACKYCGIHDPATVVMCNNCRKWFCNGRGSTSGSHIINHLVRAKHREVTLHGEGPLGETILECYSCGVRNVFVLGFIPAKADSVVVLLCRQPCAAQNSLKDMNWDQEQWKPLIADRCFLAWLVKQPSEQGQLRARQISAAQINKLEELWKENIEATFQDLEKPGIDSEPAHVLLRYEDGYQYEKTFGPLVRLEAEYDQKLKESATQENIEVRWDVGLNKKTIAYFTLAKTDSDMKLMHGDELRLHYVGELYNPWSEIGHVIKVPDNFGDDVGLELKSSTNAPVKCTSNFTVDFIWKCTSFDRMTRALCKFAIDRNSVSNFIYSRLLGHGRADSNDEVLFRGPQPKLFSAPHLPDLNRSQVYAVKHALQRPLSLIQGPPGTGKTVTSATIVYQLVKLHGGTVLVCAPSNTAVDQLTEKIHRTNLKVVRVCAKSREAIDSPVSFLALHNQIRNMETNSELKKLQQLKDETGELSSADEKRYRNLKRAAENQLLEAADVICCTCVGAGDGRLSRVKFTSILIDESMQSTEPECMVPVVLGAKQLILVGDHCQLGPVVMCKKAARAGLSQSLFERLVVLGIRPFRLEVQYRMHPELSQFPSNFFYEGSLQNGVCAEDRRLKLDFPWPQPERPMFFLVTQGQEEIAGSGTSFLNRTEAANVEKITTRFLKAGIKPEQIGIITPYEGQRAYLVQYMQYQGSLHSRLYQEIEIASVDAFQGREKDIIIMSCVRSNERQGIGFLNDPRRLNVALTRAKFGIIIVGNPKVLAKQQLWNHLLNFYKDRKVLVEGSLNNLKESLIHFQKPKKLVNSMNIGAHFMSTIIADAKEVMVPGSIYDRSGGYGQGRQMVGQSMNGGQYGGSGGGPYGNSPLGYGTPSSNSMVGFGLGNGGNGAAGGNNNFGGAGPSWAAAHLHHDSIGYISNEHGAAALGNMPVPVGMFMNMSNIPPRFYNQHQQAIMAVKQNRAIQQQTGNFSPGNSGPGVTGVGVGRSATPGGNKKTNKLGKSRVTGGGTGGAPLTQGSSVCNAAPYSQHPMPLSLQMTQPSGFALSQQPELSQDFGQISQMDGLLSQDVAFNASGERSLNQFSQPY
Consider B1, for which the binding entry was “binds”.
